Test results taken from paper PMC3050841.
Results are given in words; binding and its absence hold for the method and conditions named. Binding calls can cover weak binding; strength is not graded here.

Biological target: α-actinin from rabbit skeletal muscle (rabbit)
Test: ELISA; ELISA-based method; no details given; both purified

B1: HAMLET (Human Alpha-lactalbumin Made LEthal to Tumor cells) (protein, UniProt P00709 20-142)
chain: KQFTKCELSQLLKDIDGYGGIALPELICTMFHTSGYDTQAIVENNESTEYGLFQISNKLWCKSSQVPQSRNICDISCDKFLDDDITDDIMCAKKILDIKGIDYWLAHKALCTEKLEQWLCEKL
For B1, the binding was “binds”.
